Consider 1 molecule from article doi:10.1101/2024.10.16.618570 (bioRxiv, 2024).

In test [1] the target is BAK (BCL-2 homologous antagonist/killer), endogenous in mouse liver mitochondria (mouse (endogenous in mouse liver mitochondria)) (UniProt O08734). As to the kind of experiment: native gel or EMSA. Background: A gel shift assay detects complexes by their altered migration in electrophoresis.
Test [2] shares this target. Briefly: native gel or EMSA. The source holds these as a separate data set.

Where two headings read alike, the source gives them in different places. Results are given in words; binding and its absence hold for the method and conditions named. Some entries that bind do so weakly or less than the wild type. Where a sequence is shown, tags or fusion partners need not be part of it.

B1: BAK (BCL-2 homologous antagonist/killer), endogenous in mouse liver mitochondria (natural protein, UniProt O08734 1-209, looked up)
chain: MASGQGPGPPKVGCDESPSPSEQQVAQDTEEVFRSYVFYLHQQEQETQGAAAPANPEMDNLPLEPNSILGQVGRQLALIGDDINRRYDTEFQNLLEQLQPTAGNAYELFTKIASSLFKSGISWGRVVALLGFGYRLALYVYQRGLTGFLGQVTCFLADIILHHYIARWIAQRGGWVAALNFRRDPILTVMVIFGVVLLGQFVVHRFFRS
Take B1: the binding entry is reported as “no binding (condition: without cBID)” in test [1] and “binds” in test [2].
